The values that follow come from patent US20110230650A1 (NORTHWESTERN UNIVERSITY, published 2011).

These are yes or no findings as the source states them, for the method shown. In cells and extracts the contact can be indirect. Some entries that bind do so weakly or less than the wild type. Tags and fused reporters may be left off the sequences shown.

Assay [1] has as its target T1, KcsA potassium channel (with histidine-tag) (UniProt P0A334).
T1 sequence (looked up): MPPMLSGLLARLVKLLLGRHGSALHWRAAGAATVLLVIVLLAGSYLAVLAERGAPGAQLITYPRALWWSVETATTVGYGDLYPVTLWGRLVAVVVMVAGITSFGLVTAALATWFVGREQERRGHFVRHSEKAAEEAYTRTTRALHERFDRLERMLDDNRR
Description: separate expression in E. coli and mixing, metal-affinity co-purification without detergent, SDS-PAGE.

Assay [2] deals with T1, KcsA potassium channel (with histidine-tag). As to the kind of experiment: separate expression in E. coli, cell pastes mixed, metal-affinity co-purification of the LP5-KcsA complex without detergent, SDS-PAGE.
The target is the same in assay [3]. Description: metal-affinity co-purification with His-tagged KcsA without detergent (data not shown).

B1: LP5 (without histidine-tag) (designed binder)
chain: FQKKWQEEMELYRQKVEPLRAELQEGARQKLHELQEKLSPLGEEMRDRARAHVDAFQKKWQEEMELYRQKVEPLRAELQEGARQKLHELQEKLSPLGEEMRDRARAHVDAFQKKWQEEMELYRQKVEPLRAELQEGARQKLHELQEKLSPLGEEMRDRARAHVDAFQKKWQEEMELYRQKVEPLRAELQEGARQKLHELQEKLSPLGEEMRDRARAHVDAFQKKWQEEMELYRQKVEPLRAELQEGARQKLHELQEKLSPLGEEMRDRARAHVDA
B1: the binding result in assay [1] and in assay [2] was “binds” throughout.

B2: LP6 (designed binder)
chain: FQKKWQEEMELYRQKVEPLRAELQEGARQKLHELQEKLSPLGEEMRDRARAHVDAFQKKWQEEMELYRQKVEPLRAELQEGARQKLHELQEKLSPLGEEMRDRARAHVDAFQKKWQEEMELYRQKVEPLRAELQEGARQKLHELQEKLSPLGEEMRDRARAHVDAFQKKWQEEMELYRQKVEPLRAELQEGARQKLHELQEKLSPLGEEMRDRARAHVDAFQKKWQEEMELYRQKVEPLRAELQEGARQKLHELQEKLSPLGEEMRDRARAHVDAFQKKWQEEMELYRQKVEPLRAELQEGARQKLHELQEKLSPLGEEMRDRARAHVDA
Turning to B2, the binding entry in assay [3] was “binds”.
